Results on one sequence are retold here after publication doi:10.1101/2020.02.19.956169.

In the data set the target is T1, BaRecJ (Bacillus alcalophilus) (UniProt A0A094WFF5).
T1 sequence (looked up, limits assumed): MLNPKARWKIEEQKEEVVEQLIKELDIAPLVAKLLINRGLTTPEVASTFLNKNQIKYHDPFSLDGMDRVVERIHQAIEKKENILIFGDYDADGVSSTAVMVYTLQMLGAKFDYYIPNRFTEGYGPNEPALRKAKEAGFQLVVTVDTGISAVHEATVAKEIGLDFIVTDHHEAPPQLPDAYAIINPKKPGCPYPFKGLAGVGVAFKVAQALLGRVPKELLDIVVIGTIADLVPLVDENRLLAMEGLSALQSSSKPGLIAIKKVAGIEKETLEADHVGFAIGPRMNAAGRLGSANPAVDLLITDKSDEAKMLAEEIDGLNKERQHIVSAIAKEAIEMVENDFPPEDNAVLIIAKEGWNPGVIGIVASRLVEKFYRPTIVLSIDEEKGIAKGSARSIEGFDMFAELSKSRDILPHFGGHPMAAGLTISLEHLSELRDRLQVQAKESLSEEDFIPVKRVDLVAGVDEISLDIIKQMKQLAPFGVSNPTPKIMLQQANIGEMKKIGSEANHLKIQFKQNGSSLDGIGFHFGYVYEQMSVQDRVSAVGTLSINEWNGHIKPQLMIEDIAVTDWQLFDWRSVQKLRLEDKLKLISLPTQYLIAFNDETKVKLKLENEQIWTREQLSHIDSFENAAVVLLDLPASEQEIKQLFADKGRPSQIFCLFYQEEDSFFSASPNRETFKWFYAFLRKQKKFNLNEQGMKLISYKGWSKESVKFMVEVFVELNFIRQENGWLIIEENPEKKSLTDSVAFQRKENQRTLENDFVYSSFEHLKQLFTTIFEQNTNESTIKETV
In words: EMSA. The conditions noted are these: Ca2+ replacing Mn2+, bound most strongly among the substrates; 5'-OH.

For at least one entry, the source does not settle the construct or the ends of the probe. Where a protein sequence is shown, tags need not be part of it.

On to “TCCGATAGCCAGATATCTTGACA [ssDNA oligonucleotide (DD295)]”, for which the binding result is reported as “binds”.
